Measurements reported in article PMC8343996.
No constants are given. Whether binding was seen depends on the method and setting. In cells and extracts the contact can be indirect. Some binding calls cover weakened binding; strength is not graded here.

Chains of the proteins cited; added tags and fusions are not shown.
UniProt P63096: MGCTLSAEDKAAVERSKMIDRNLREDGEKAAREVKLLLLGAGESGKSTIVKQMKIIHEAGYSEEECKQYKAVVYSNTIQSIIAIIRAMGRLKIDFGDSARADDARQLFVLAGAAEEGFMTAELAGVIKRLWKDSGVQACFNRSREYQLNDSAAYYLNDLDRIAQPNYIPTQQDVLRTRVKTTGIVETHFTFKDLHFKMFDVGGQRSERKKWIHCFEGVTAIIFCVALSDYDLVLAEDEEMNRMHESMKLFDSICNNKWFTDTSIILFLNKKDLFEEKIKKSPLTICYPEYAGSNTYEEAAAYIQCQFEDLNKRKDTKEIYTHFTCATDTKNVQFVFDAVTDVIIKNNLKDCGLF
UniProt P08754: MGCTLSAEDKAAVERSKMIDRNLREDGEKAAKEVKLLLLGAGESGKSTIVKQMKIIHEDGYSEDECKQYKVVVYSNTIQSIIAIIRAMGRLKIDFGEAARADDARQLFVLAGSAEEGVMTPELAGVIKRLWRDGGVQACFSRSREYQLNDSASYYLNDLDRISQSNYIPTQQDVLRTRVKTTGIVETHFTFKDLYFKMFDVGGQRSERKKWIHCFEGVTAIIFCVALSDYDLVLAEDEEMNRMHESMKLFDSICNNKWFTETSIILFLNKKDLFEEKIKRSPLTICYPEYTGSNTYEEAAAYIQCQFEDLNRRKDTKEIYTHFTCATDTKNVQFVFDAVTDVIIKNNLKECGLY

Target: T1, Gab1 (human (endogenous in U251MG)) (UniProt Q13480)
T1 sequence: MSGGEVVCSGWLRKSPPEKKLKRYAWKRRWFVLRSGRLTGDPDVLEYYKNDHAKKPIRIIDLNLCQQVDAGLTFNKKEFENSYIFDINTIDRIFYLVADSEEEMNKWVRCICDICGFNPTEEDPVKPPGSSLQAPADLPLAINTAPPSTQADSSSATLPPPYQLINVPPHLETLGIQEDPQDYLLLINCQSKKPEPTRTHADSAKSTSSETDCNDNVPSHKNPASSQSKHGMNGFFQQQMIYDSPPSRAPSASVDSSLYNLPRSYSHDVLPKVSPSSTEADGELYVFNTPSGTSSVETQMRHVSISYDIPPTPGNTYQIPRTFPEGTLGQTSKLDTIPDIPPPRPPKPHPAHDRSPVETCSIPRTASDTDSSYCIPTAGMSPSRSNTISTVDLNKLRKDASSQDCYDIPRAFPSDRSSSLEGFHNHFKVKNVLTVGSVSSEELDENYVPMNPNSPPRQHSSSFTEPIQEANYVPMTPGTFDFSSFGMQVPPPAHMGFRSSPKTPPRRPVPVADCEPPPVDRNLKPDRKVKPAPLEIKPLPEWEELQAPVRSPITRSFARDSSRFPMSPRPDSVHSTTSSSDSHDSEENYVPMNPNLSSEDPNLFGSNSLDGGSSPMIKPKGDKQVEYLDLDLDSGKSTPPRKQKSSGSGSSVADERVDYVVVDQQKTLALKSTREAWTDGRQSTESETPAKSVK
Experiment: co-IP; U251MG cells treated with NLGN3 (50 ng/mL) for 5 min; endogenous proteins in lysate, detected by Western blotting; protocol referred to earlier work

| binding | Substance |
| --- | --- |
| binds | Gαi1 (from UniProt P63096 1-354) |
| binds | Gαi3 (from UniProt P08754 1-354) |
